Laboratory results taken from article PMC3668578.
These are yes or no findings as the source states them, for the method shown.

Key:
[1] = target: PatF from Prochloron didemni (native) (Prochloron didemni) (UniProt Q52QJ2); experiment: SEC; Superdex 75 gel filtration in 150 mM NaCl, 10 mM HEPES pH 7.4, 1 mM TCEP, 10% glycerol; self-association of purified PatF; both purified
[2] = target: L-Selenomethionine-labelled (SeMet) PatF from Prochloron didemni (Prochloron didemni) (UniProt Q52QJ2); experiment: as above

| binding [1] | binding [2] | Binder |
| --- | --- | --- |
| no binding | – | PatF from Prochloron didemni (native) (protein, UniProt Q52QJ2 2-320) DLIDRLQNNQRKDRRLQFVRTHQEAFDVKPTFPLPLFEEAILEIEGSCSVESSCQVEGDRLQGGRYEVCNNQGTTWPESLTHAFKLLDKIDSQLGVRINRDSFDRFAAAHVNSRKIINNTIGVHLGSKLEDSSVMLYIHIKPEEDTEELARTALVLDGGRYSDELTRVLLRDTMVIGFELFFDGRSRVDLGPCAPGKSGTLKMKGKHLEQYTQKNLSRKVNSIFREGYLFGAFFSKTRVEPILFFYHSIIKDLPKYFTFNSLGDKIYNFCQSQGCITDVAIAVTETELEKSRLENFCFYYDQWDECKPSSDYDTERHLHRS |
| – | no binding | L-Selenomethionine-labelled (SeMet) PatF from Prochloron didemni (protein, UniProt Q52QJ2 2-320, three selenomethionine residues (confirmed by mass spectrometry)) DLIDRLQNNQRKDRRLQFVRTHQEAFDVKPTFPLPLFEEAILEIEGSCSVESSCQVEGDRLQGGRYEVCNNQGTTWPESLTHAFKLLDKIDSQLGVRINRDSFDRFAAAHVNSRKIINNTIGVHLGSKLEDSSVMLYIHIKPEEDTEELARTALVLDGGRYSDELTRVLLRDTMVIGFELFFDGRSRVDLGPCAPGKSGTLKMKGKHLEQYTQKNLSRKVNSIFREGYLFGAFFSKTRVEPILFFYHSIIKDLPKYFTFNSLGDKIYNFCQSQGCITDVAIAVTETELEKSRLENFCFYYDQWDECKPSSDYDTERHLHRS |
